From PubChem BioAssay AID540276 (National Center for Advancing Translational Sciences (NCATS), 2011)
Several values for one entry are separate records, joined by “and”; a condition that tells them apart may be missing. Equal values may be shown once. The campaign covered roughly 300,000 compounds. About 5,400 (1.8%) were called active. The shares of active, inactive and inconclusive entries below differ from those in the screen. Calls follow the shape of the full dose curve; tested in HEK293 cells. Potencies beside an inconclusive call are fits to weak or partial responses and may not hold up.

Assay: qHTS for inhibitors of binding or entry into cells for Marburg Virus
Conditions: Marburg virus pseudotyped entry inhibition, cell reporter; activity change, negative = inhibition: at 37.8 µM (top of the series) unless noted
% is scaled to controls: 0 for no effect and ±100 for the full control effect; potency is read from the fitted curve at half-maximal effect.

Structure (SMILES)	Potency	activity change, negative = inhibition
CC(=O)N(CCN(C(C)=O)c1ccccc1)c1ccccc1	inconclusive: 3.66 µM [activator, partial curve, poor fit]	–
O=[N+]([O-])c1ccc(N=Cc2sc3ccccc3c2O)cc1	inconclusive: 0.316 µM [inhibitor, partial curve, poor fit]	–
Cc1ccc(/C=N/NC(=O)c2c[nH]c3ccccc23)s1	inconclusive: 0.708 µM [activator, single point]	–
FC(F)(F)c1cccc(N2CCN(Cc3ccoc3)CC2)c1	inconclusive: 29.1 µM [inhibitor, single point]	–
Oc1ccccc1Nc1nc(-c2ccccc2)c2cc(Cl)ccc2n1	–	inactive: 3.75% [at 46.1 µM]
CC(C)N1C(=S)N=C2C1C(=O)NC(=O)N2C (centres undefined)	inconclusive: 12.6 µM [activator, single point]	–
COc1cc(NC(=O)c2ccc(C(C)(C)C)cc2)c(OC)cc1NC(=O)CN1CCCCC1	inconclusive: 3.16 µM [inhibitor, single point]	–
COc1ccc(N2CCN(C(=O)c3cc4c(-c5ccccc5F)nn(C)c4s3)CC2)cc1	–	inactive: 13.7% [at 46.1 µM]
COc1ccc(OC)c(NC2=C(c3ccccc3)C(=O)c3ccccc32)c1	inconclusive: 6.31 µM [inhibitor, single point]	–
O=C(CSc1nc(Nc2ccccc2)nc(N2CCOCC2)n1)Nc1ccc2c(c1)OCCO2	inactive and inconclusive: 29.1 µM [inhibitor, single point]	–
COc1ccc(NC(=O)COc2cccc3c2OC(C)(C)C3)c(OC)c1	inconclusive: 8.91 µM [inhibitor, partial curve, poor fit]	–
COc1ccccc1N1CCN(C(=O)c2c(-c3ccccc3Cl)noc2C)CC1	inconclusive: 14.1 µM [inhibitor, single point]	–
COn1c(=O)c(-c2ccccc2)[n+]([O-])c2ccccc21	inconclusive: 3.98 µM [inhibitor, single point]	–
COc1ccc(/C=N/Nc2nnc(-c3ccccc3)c(=O)[nH]2)cc1	–	inactive: 1.81%
CC1CCCN(CC(=O)NNC(=O)COc2ccc(Br)cc2)C1 (centres undefined)	inconclusive: 0.891 µM [activator, full curve, poor fit]	–
O=c1nc2sc3ccccc3n2c(=O)n1-c1cccc(Cl)c1	inconclusive: 0.891 µM [activator, single point]	–
NC(=O)c1ccccc1OCC(=O)Nc1ccc2c(c1)OCCO2	inconclusive: 3.16 µM [inhibitor, single point]	–
CCOC(=O)C1=C(CC)Nc2ccccc2N=C1NC(=O)c1ccc(C)c(S(=O)(=O)N2CCOCC2)c1	inconclusive: 35.5 µM [inhibitor, single point]	–
Cc1ccc(NC(=O)CCC2CC(C)(C)OC2=O)cc1 (centres undefined)	–	inactive: 14.2%
CC1CCN(S(=O)(=O)c2ccc3c(c2)N(CC(=O)NCc2ccccc2)C(=O)CO3)CC1	–	inactive: -9.33% [at 46.1 µM]
Cc1cc(C(=O)NCc2ccco2)no1	–	inactive: 2.92%
Cc1ccc(CN(c2ccc(C(=O)NCc3cccnc3)cc2)S(C)(=O)=O)cc1	inconclusive: 18.3 µM [inhibitor, partial curve]	–
N#Cc1nc(COc2ccccc2F)oc1N1CCCCCC1	inconclusive: 0.891 µM [inhibitor, full curve, poor fit]	–

Structure (SMILES)	Potency	activity change, negative = inhibition
COc1ccccc1NS(=O)(=O)c1cccc(NC(=O)NC2CCCCC2)c1	inconclusive: 15.8 µM [inhibitor, single point]	–
Cc1ccc(/C=N/Nc2ccc(Cl)c(C(=O)O)c2)s1	inconclusive: 0.631 µM [activator, partial curve, poor fit]	–
O=C(C1Cc2ccccc2CN1S(=O)(=O)c1ccc(F)cc1)N1CCOCC1 (centres undefined)	inconclusive: 1.3 µM [activator, partial curve, poor fit]	–
COc1cc(N2C(=O)C=CC2=O)c(OC)cc1Cl	inconclusive: 12.6 µM [inhibitor, partial curve, poor fit]	–
CCCCc1nc(N)c(C#N)c(-c2ccco2)c1CCC	inconclusive: 20.6 µM [inhibitor, single point]	–
Cc1cc(C(C)(C)C)ccc1OCCOCCN1CCCC1	active: 8.2 µM	–
CC1CCCN(S(=O)(=O)c2ccc(C(=O)Nc3nnc(-c4ccccc4Cl)o3)cc2)C1 (centres undefined)	inactive and inconclusive: 4.47 µM [inhibitor, partial curve, poor fit]	–
O=C(OC1CCc2ccccc2C1=O)c1ccccc1O (centres undefined)	inconclusive: 35.5 µM [activator, partial curve, poor fit]	–
O=C(NC1CCCCC1)C(c1ccc2ncccc2c1)N(Cc1cccs1)C(=O)c1cccs1 (centres undefined)	inconclusive: 11.6 µM [inhibitor, partial curve, poor fit]	–
OC1(c2cccs2)CN(c2ccc(Cl)cc2)C2=[N+]1CCCC2 (centres undefined)	inconclusive: 35.5 µM [inhibitor, single point]	–
CCOC(=O)c1sc(C)c2c1NC(C)(c1cccs1)NC2=O (centres undefined)	inconclusive: 29.1 µM [inhibitor, single point]	–
CCCOc1ccc(/C=C/c2[nH]c(=O)[nH]c(=O)c2[N+](=O)[O-])cc1OCC	–	inactive: 4.55% [at 46.1 µM]
COc1ccc(NC(=O)COC(=O)c2cccn2C)cc1S(=O)(=O)N1CCCCC1	inconclusive: 11.2 µM [inhibitor, partial curve, poor fit]	–
CCc1ccccc1N(C)C(=O)c1cn(CC(C)C)c(=O)c2cc(OC)c(OC)cc12	inconclusive: 3.16 µM [inhibitor, partial curve, poor fit]	–
Cc1nn(CC(=O)NCc2ccco2)c(=O)c2cc3ccccc3n12	inconclusive: 20 µM [activator, single point]	–
Cc1cccc(NC(=O)Nc2nnc(N(C)C3CCCCC3)s2)c1C	inconclusive: 25.1 µM [inhibitor, single point]	–
CCOc1ccc(N(CC(=O)Nc2ccccc2)S(C)(=O)=O)cc1	–	inactive: 27%
O=C(N/N=C\c1ccc(COc2ccc([N+](=O)[O-])cc2)o1)c1ccc(Cl)cc1	inconclusive: 35.5 µM [inhibitor, single point]	–
Cc1ccc(NC(=O)COc2ccccc2)cc1Cl	inconclusive: 15.8 µM [activator, single point]	–
O=[N+]([O-])c1cn(-c2nc(-c3ccco3)cc(C(F)(F)F)n2)cn1	inconclusive: 0.116 µM [inhibitor, full curve, poor fit]	–
COc1cc(NC(=O)c2ccccc2)c(OC)cc1NC(C)=O	inconclusive: 0.103 µM [inhibitor, partial curve, poor fit]	–
NC(=O)NC(=O)CSc1nc(-c2ccccc2)c(-c2ccccc2)n1CC1CCCO1 (centres undefined)	–	inactive: 4.76%
Cc1cccc(C(=O)N2CCN(c3ccc(N4CCOCC4)nn3)CC2)c1	–	inactive: 1.25% [at 46.1 µM]

Structure (SMILES)	Potency	activity change, negative = inhibition
O=C(CSc1ccc(-c2ccccn2)nn1)Nc1ccc(F)c(F)c1	inactive	–
C=C[C@]1(C)C[C@H]1[C@H](NP(=O)(c1ccccc1)c1ccccc1)c1ccccc1	–	inactive: -1.39%
Cc1ccccc1-n1c(SCC(=O)Nc2ccccc2)nc2nc3c(cc2c1=O)CCCC3	inconclusive: 35.5 µM [inhibitor, single point]	–
Cc1nn(CC(=O)Nc2ccc(Cl)c(S(=O)(=O)N(C)C)c2)c(C)c1[N+](=O)[O-]	inconclusive: 0.562 µM [inhibitor, partial curve, poor fit]	–
Cc1ccc(O)c(NC(=S)NC(=O)/C=C/c2ccco2)c1	inconclusive: 6.31 µM [inhibitor, full curve, poor fit]	–
COC1=CC2C(=O)C(C(c3ccccc3)C2C)C1(O)c1cccc(OC)c1 (centres undefined)	–	inactive: 15.2% [at 14.2 µM]
COc1ccc(NC(=O)COc2ccccc2C)cc1S(=O)(=O)N1CCCCC1	inconclusive: 12.6 µM [inhibitor, single point]	–
COc1ccc(NC(C)=O)cc1NC(=O)CN1CCN(C2c3ccccc3-c3ccccc32)CC1	inconclusive: 10 µM [inhibitor, partial curve, poor fit]	–
COc1ccc(NC(=O)c2nnn(Cc3ccccc3C)c2N)c(OC)c1	–	inactive: -0.377% [at 46.1 µM]
CSc1cccc(NC(=O)COc2ccccc2)c1	–	inactive: 1.88%
COC(=O)c1sccc1NS(=O)(=O)c1ccc(OC)cc1	inconclusive: 7.3 µM [inhibitor, partial curve, poor fit]	–
CC1=CC2=NC(=O)CC(C)(C(=O)N(CC(=O)NC(C)(C)C)Cc3ccccc3)N2C=C1 (centres undefined)	inconclusive: 35.5 µM [activator, single point]	–
COC(=O)C(Cc1ccc(N(CCCl)CCCl)cc1)N=Cc1ccccc1O (centres undefined)	inconclusive: 1.12 µM [inhibitor, full curve, poor fit]	–
N=C(N)SCCc1cnc[nH]1	inactive	–
Cc1ccc(NC(=O)c2nc(S(C)(=O)=O)ncc2N(Cc2ccccc2)Cc2ccco2)c(C)c1	–	inactive: 5.38% [at 46.1 µM]
Cc1cc(C)n(CCc2nc(-c3ccco3)cs2)n1	–	inactive: 11.6%
Cc1ccc(/C=N/NC(=O)c2ccc3nc[nH]c3c2)o1	–	inactive: -5.97% [at 46.1 µM]
Cc1cc(NC(=O)C(C)Oc2ccc(Cl)cc2Cl)no1 (centres undefined)	–	inactive: 8.01% [at 46.1 µM]
Clc1ccc(Cn2cc(/C=N/n3cnnc3)c3ccccc32)cc1	–	inactive: -23.8%
CCCc1nc(SCC(=O)NC2CC2)c2c(C)c(C)sc2n1	–	inactive: 17.9% [at 46.1 µM]
Cc1ccc(S(=O)(=O)N2CCOCC2)cc1C(=O)Nc1nc2ccccc2[nH]1	–	inactive: 5.62%
O=C(O)CCc1nn2c3ccccc3n(CC(=O)c3cccs3)c2nc1=O	inconclusive: 17.8 µM [inhibitor, single point]	–
COc1ccc2[nH]c(CN3CCN(CC(C)C)C(CCO)C3)c(C)c2c1 (centres undefined)	inconclusive: 22.4 µM [inhibitor, single point]	–

Shown with each value named: part of the list above.
Cc1ccc(CN(c2ccc(C(=O)NCc3cccnc3)cc2)S(C)(=O)=O)cc1
  Potency: inconclusive: 18.3 µM [inhibitor, partial curve]
Cc1ccc(O)c(NC(=S)NC(=O)/C=C/c2ccco2)c1
  Potency: inconclusive: 6.31 µM [inhibitor, full curve, poor fit]
COc1ccc(NC(=O)c2nnn(Cc3ccccc3C)c2N)c(OC)c1
  activity change, negative = inhibition: inactive: -0.377% [at 46.1 µM]
